# Measurements as given in article PMC9681887.
# Chains of the proteins cited; added tags and fusions are not shown. Lines headed by an entry give the natural chain unless they say otherwise; changes in a name come on top.
# UniProt P06804: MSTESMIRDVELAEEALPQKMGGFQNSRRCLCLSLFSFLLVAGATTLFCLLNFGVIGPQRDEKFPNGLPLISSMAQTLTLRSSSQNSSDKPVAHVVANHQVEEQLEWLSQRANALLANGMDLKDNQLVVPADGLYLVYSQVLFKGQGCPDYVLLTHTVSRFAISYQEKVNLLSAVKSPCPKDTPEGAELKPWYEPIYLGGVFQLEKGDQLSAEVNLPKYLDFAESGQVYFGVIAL
# Columns and labels:
# Flag-TNFα = Flag-TNFα (UniProt P06804); test: co-IP; MEFs (SENP1-WT, SENP1-KD, PIAS1-KO, SENP1-KO or reconstituted lines; with or without Nec-1s 10 μM) stimulated with Flag-TNFα (100 ng/ml) for the indicated time; lysis in 0.5% NP-40 buffer (50 mM Tris-HCl pH 7.5, 150 mM NaCl, 5% glycerol, N-ethylmaleimide); TNF-RSC precipitated with anti-Flag M2 beads overnight at 4 °C; immunoblot; only the target purified
# [1] = target: SENP1 (ectopically expressed); test: co-IP; ectopically expressed proteins (HEK293T where stated); lysate in 50 mM Tris-HCl pH 7.5, 150 mM NaCl, 1% NP40, 5% glycerol; antibody overnight at 4 °C, protein A/G agarose; immunoblot
binding (Flag-TNFα),binding [1],Binder
binds,,"A20 (protein, UniProt Q60769 1-775) MAEQLLPQALYLSNMRKAVKIRERTPEDIFKPTNGIIYHFKTMHRYTLEMFRTCQFCPQFREIIHKALIDRSVQASLESQKKLNWCREVRKLVALKTNGDGNCLMHAACQYMWGVQDTDLVLRKALCSTLKETDTRNFKFRWQLESLKSQEFVETGLCYDTRNWNDEWDNLVKMASADTPAARSGLQYNSLEEIHIFVLSNILRRPIIVISDKMLRSLESGSNFAPLKVGGIYLPLHWPAQECYRYPIVLGYDSQHFVPLVTLKDSGPELRAVPLVNRDRGRFEDLKVHFLTDPENEMKEKLLKEYLIVMEIPVQGWDHGTTHLINAAKLDEANLPKEINLVDDYFELVQHEYKKWQENSDQARRAAHAQNPLEPSTPQLSLMDIKCETPNCPFFMSVNTQPLCHECSERRQKNQSKLPKLNSKLGPEGLPGVGLGSSNWSPEETAGGPHSAPPTAPSLFLFSETTAMKCRSPGCPFTLNVQHNGFCERCHARQINASHTADPGKCQACLQDVTRTFNGICSTCFKRTTAEPSSSLTSSIPASCHQRSKSDPSQLIQSLTPHSCHRTGNVSPSGCLSQAARTPGDRAGTSKCRKAGCMYFGTPENKGFCTLCFIEYRENKQSVTASEKAGSPAPRFQNNVPCLGRECGTLGSTMFEGYCQKCFIEAQNQRFHEARRTEEQLRSSQHRDMPRTTQVASRLKCARASCKNILACRSEELCMECQHLSQRVGSVAHRGEPTPEEPPKQRCRAPACDHFGNAKCNGYCNECYQFKQMYG"
,no binding,"A20 (tested against SENP1) (protein, UniProt Q60769 1-775) MAEQLLPQALYLSNMRKAVKIRERTPEDIFKPTNGIIYHFKTMHRYTLEMFRTCQFCPQFREIIHKALIDRSVQASLESQKKLNWCREVRKLVALKTNGDGNCLMHAACQYMWGVQDTDLVLRKALCSTLKETDTRNFKFRWQLESLKSQEFVETGLCYDTRNWNDEWDNLVKMASADTPAARSGLQYNSLEEIHIFVLSNILRRPIIVISDKMLRSLESGSNFAPLKVGGIYLPLHWPAQECYRYPIVLGYDSQHFVPLVTLKDSGPELRAVPLVNRDRGRFEDLKVHFLTDPENEMKEKLLKEYLIVMEIPVQGWDHGTTHLINAAKLDEANLPKEINLVDDYFELVQHEYKKWQENSDQARRAAHAQNPLEPSTPQLSLMDIKCETPNCPFFMSVNTQPLCHECSERRQKNQSKLPKLNSKLGPEGLPGVGLGSSNWSPEETAGGPHSAPPTAPSLFLFSETTAMKCRSPGCPFTLNVQHNGFCERCHARQINASHTADPGKCQACLQDVTRTFNGICSTCFKRTTAEPSSSLTSSIPASCHQRSKSDPSQLIQSLTPHSCHRTGNVSPSGCLSQAARTPGDRAGTSKCRKAGCMYFGTPENKGFCTLCFIEYRENKQSVTASEKAGSPAPRFQNNVPCLGRECGTLGSTMFEGYCQKCFIEAQNQRFHEARRTEEQLRSSQHRDMPRTTQVASRLKCARASCKNILACRSEELCMECQHLSQRVGSVAHRGEPTPEEPPKQRCRAPACDHFGNAKCNGYCNECYQFKQMYG"

# No constants are given. Whether binding was seen depends on the method and setting. Binding seen in cells or lysates may run through a third protein. For some assays here: A result given as binding can be weak or reduced; the word gives no strength.
